Some of the results follow. Residues, ends and D or L forms follow the SMILES beside them. *: point of attachment. Cbz = O=C(OCc1ccccc1)*
Experiments:
Test in all cases: log2 fold change, soluble protein after heating vs DMSO (PISA); higher = thermal stabilisation; K562 cells, 10 uM, 30 min; active = over 0.2 and 3.5 SD of the protein, either way, in both replicates (recomputed)
[1] = compound: C1COCCN1CCN2C3=CC=CC=C3N=C2NC(=O)C4=CC(=CC=C4)[N+](=O)[O-] [IRAK-1-4 Inhibitor I]
Procedure, shortened: (§1)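 Soluble protein was defined as the supernatant after 21,000xg for 90 min. It came from K562 cells at 2×10^6 cells/mL given 10 μM compound for 30 min, heated in aliquots for 3 min across 48°C-58°C, pooled, and extracted in PBS with 0.5% NP-40 at 4°C, and was quantified by TMTpro 16plex LC-MS/MS with equalised channel sums. Thermal stability against control samples, from duplicates, is reported as log2 fold change.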

The chains behind the UniProt entries cited, without tags or fusion partners. Where a name states a change or a piece, a line headed by the entry shows the natural chain unless it says otherwise.
UniProt Q66PJ3: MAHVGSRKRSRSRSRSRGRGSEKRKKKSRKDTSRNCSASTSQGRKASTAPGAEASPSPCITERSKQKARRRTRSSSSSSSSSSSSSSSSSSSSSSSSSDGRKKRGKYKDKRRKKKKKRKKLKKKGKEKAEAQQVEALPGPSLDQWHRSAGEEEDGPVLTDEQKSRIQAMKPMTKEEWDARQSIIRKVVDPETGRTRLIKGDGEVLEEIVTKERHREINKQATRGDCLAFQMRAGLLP
UniProt P49407: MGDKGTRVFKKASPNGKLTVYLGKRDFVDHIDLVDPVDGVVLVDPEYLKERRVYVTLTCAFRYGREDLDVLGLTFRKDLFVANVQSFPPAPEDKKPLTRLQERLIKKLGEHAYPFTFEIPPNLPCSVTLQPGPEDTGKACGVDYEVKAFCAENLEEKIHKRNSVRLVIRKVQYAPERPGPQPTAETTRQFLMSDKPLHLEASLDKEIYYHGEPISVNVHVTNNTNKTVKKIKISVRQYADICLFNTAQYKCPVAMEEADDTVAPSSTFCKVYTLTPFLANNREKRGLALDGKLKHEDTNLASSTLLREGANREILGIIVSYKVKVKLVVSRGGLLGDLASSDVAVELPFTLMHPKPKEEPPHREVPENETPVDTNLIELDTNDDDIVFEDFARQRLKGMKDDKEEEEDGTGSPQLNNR
UniProt P40617: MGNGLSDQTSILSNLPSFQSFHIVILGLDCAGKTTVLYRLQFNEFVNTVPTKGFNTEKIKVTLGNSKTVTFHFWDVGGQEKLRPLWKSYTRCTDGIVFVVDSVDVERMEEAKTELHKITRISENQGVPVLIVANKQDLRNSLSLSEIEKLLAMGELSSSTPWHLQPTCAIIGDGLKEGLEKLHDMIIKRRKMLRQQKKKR
UniProt P18846: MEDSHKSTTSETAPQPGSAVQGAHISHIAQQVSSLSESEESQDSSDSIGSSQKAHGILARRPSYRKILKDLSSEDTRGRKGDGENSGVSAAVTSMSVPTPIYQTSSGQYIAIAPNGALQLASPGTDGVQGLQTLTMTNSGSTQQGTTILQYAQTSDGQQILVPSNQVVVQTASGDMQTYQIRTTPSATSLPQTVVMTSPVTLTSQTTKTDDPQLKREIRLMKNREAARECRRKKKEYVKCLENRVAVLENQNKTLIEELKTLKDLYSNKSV
UniProt P27449, whole entry, looked up: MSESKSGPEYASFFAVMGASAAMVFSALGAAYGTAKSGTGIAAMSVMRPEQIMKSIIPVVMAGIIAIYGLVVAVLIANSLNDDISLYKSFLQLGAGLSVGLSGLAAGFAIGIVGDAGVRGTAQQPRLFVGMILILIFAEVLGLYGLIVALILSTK
UniProt Q9H0F7: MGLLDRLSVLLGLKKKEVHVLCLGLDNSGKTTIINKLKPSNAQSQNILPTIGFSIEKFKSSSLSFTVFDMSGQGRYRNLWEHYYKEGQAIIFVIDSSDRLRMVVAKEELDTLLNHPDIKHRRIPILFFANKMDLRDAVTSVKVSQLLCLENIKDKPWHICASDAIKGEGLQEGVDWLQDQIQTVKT
UniProt Q15904, whole entry, looked up: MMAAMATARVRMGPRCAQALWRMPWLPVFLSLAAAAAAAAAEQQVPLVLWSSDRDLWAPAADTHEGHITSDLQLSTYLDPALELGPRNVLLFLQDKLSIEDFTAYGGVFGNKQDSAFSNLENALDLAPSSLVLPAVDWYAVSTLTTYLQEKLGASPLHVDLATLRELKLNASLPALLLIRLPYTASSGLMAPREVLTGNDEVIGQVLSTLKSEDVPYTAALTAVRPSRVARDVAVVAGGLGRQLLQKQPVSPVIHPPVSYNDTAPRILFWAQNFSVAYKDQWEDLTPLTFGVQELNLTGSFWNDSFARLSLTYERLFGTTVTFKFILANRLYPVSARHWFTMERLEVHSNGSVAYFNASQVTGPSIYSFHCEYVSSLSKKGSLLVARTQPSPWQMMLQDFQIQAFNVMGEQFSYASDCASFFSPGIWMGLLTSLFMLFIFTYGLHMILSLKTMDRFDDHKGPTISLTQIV
UniProt Q2TAZ0: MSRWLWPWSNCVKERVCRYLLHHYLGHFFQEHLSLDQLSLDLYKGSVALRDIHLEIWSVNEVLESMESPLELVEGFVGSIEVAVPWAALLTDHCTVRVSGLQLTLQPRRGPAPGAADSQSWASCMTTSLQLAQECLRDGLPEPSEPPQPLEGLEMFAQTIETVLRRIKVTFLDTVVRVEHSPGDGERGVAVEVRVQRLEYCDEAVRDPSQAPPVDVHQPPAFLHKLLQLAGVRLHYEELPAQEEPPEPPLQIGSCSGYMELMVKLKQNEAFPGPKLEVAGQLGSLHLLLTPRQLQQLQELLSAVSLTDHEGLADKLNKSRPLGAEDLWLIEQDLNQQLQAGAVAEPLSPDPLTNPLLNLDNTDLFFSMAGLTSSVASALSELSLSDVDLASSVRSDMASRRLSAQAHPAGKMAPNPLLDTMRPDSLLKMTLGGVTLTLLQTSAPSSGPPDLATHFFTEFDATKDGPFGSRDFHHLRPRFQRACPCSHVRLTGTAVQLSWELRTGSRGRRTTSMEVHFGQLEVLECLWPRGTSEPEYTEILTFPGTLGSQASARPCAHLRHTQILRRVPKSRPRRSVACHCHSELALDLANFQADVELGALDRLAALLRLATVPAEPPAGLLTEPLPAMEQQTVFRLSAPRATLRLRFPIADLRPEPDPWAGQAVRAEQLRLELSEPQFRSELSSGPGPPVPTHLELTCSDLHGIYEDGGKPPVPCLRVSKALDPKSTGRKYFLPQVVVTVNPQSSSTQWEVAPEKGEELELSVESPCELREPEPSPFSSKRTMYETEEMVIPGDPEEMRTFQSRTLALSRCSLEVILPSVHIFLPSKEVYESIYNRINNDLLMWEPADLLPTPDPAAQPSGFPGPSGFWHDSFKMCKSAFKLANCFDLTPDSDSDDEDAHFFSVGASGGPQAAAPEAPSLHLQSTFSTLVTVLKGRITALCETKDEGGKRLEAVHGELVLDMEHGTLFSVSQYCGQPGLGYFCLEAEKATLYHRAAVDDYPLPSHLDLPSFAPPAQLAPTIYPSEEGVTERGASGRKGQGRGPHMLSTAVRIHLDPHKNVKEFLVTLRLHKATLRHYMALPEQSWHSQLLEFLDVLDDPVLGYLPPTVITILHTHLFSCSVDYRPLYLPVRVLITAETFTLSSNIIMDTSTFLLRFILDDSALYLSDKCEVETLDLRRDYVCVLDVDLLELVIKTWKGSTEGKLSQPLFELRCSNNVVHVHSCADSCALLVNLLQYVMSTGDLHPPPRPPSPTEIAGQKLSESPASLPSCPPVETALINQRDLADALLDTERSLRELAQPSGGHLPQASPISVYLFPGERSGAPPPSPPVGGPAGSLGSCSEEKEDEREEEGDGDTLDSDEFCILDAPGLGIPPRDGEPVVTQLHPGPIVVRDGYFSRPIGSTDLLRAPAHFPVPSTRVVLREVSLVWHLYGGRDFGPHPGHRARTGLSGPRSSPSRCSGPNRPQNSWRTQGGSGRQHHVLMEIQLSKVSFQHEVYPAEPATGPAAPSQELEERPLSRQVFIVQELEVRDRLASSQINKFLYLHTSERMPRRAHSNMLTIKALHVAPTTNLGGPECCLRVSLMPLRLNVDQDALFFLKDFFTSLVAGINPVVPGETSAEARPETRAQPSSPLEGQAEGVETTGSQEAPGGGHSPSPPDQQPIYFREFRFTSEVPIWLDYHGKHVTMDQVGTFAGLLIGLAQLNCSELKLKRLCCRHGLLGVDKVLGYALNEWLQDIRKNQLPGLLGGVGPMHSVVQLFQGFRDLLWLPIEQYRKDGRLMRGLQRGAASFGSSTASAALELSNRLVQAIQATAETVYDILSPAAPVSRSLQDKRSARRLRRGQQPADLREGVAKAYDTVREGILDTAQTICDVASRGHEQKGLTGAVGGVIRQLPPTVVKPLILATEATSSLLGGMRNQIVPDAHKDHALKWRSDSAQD
UniProt O94817, whole entry, looked up: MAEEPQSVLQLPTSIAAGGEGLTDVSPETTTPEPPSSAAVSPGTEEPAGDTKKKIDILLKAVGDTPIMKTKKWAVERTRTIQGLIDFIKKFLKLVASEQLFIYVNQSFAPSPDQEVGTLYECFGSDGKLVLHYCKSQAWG
UniProt Q6ZNE5, whole entry, looked up: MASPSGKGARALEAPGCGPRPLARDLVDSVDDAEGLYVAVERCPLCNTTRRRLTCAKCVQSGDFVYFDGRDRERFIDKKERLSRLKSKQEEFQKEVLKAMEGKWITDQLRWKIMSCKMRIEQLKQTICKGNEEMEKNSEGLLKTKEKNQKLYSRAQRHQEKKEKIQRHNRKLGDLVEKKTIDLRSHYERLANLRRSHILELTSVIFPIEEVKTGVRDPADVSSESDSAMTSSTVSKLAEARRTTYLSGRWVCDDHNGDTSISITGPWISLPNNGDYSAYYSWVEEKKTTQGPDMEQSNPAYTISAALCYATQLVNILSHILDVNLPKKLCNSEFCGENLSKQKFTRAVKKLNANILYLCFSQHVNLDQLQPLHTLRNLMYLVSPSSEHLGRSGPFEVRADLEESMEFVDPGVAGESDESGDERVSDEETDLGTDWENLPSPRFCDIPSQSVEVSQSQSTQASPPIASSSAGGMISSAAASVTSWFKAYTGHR
UniProt Q9Y487, whole entry, looked up: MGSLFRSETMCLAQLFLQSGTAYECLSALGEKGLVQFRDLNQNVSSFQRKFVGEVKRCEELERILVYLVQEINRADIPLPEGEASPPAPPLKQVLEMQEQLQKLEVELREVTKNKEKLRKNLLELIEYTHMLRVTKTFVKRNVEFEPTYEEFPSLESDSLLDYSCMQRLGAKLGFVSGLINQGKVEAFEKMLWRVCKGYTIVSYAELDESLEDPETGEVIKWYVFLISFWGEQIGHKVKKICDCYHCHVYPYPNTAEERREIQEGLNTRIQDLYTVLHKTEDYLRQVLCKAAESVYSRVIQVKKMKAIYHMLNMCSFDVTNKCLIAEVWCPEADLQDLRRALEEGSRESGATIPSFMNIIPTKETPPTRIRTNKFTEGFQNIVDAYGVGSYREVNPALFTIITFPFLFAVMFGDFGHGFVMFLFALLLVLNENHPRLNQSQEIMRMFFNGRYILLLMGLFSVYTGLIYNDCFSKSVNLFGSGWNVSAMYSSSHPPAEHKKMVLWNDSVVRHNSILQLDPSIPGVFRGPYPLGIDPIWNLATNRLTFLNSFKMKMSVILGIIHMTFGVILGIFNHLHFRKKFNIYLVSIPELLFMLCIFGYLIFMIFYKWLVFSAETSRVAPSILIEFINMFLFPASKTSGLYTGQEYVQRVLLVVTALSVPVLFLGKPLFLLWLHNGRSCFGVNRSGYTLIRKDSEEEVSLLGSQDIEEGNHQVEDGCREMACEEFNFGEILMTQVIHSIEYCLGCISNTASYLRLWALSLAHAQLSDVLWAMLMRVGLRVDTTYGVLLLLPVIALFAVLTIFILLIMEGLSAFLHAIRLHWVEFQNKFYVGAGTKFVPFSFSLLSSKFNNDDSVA
UniProt Q96DT6: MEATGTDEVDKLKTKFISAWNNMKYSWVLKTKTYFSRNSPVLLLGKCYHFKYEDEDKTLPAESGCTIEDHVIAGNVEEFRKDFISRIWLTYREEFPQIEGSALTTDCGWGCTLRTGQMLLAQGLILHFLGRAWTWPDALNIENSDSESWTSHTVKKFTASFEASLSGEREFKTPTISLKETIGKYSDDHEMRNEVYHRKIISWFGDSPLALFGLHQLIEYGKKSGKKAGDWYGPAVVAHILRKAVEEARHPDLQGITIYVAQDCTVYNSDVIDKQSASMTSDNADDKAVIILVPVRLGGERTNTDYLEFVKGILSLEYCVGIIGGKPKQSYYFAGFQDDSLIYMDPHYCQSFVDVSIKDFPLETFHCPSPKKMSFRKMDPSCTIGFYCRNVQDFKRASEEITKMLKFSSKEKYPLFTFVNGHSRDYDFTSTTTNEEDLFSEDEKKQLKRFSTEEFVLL
UniProt Q6UWY0: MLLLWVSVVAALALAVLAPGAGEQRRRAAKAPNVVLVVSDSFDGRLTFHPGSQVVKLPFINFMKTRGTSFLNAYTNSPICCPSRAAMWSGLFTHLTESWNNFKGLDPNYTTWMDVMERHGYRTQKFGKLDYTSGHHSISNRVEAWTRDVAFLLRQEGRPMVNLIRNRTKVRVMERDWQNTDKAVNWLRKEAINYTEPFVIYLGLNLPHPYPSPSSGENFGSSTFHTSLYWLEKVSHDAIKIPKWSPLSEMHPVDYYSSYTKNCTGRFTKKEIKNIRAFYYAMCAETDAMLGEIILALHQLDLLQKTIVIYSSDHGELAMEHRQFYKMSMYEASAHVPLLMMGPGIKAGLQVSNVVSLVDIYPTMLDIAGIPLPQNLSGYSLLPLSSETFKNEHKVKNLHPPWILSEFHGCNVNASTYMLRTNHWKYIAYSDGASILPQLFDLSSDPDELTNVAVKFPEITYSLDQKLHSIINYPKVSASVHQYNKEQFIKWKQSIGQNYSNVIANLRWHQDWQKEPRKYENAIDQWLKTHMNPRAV

[2] = compound: C=CC(=O)N1CCC[C@@H](n2nc(-c3ccc(Oc4ccccc4)cc3)c3c(N)ncnc32)C1 [ibrutinib]
Procedure, shortened: as §1

[3] = compound: CC(=O)c1cnc2ccc(-c3cc(Cl)c(O)c(Cl)c3)nc2c1N[C@H]1CC[C@H](CN(C)C)CC1
Procedure, shortened: as §1

[4] = compound: CC(C)(C)Cn1c(N)nc2ccc(-c3[nH]c(C(C)(C)C)nc3-c3ccc(F)cc3)nc21 [ralimetinib]
Procedure, shortened: as §1

[5] = compound: CC(C)(O)CC(=O)NCCn1ccc2ncnc(Nc3ccc(Oc4cccc(C(F)(F)F)c4)c(Cl)c3)c21
Procedure, shortened: as §1

[6] = compound: CC(C)C1=C2N=C(C=C(N2N=C1)NCC3=CC=CC=C3)NCCCCCCN
Procedure, shortened: as §1

[7] = compound: CC(C)C[C@@H](C=O)NC(=O)[C@H](CC(C)C)NC(=O)[C@H](CC(C)C)NC(=O)OCc1ccccc1
Procedure, shortened: as §1

[8] = compound: CC(C)N(C[C@H]1O[C@@H](n2cnc3c(N)ncnc32)[C@H](O)[C@@H]1O)[C@H]1C[C@@H](CCc2nc3cc(C(C)(C)C)ccc3[nH]2)C1 [pinometostat]
Procedure, shortened: as §1

[9] = compound: CC1=C(C2=C(C=C1)C(=O)C3=CC=CC=C3N2CCCN)C
Procedure, shortened: as §1

[10] = compound: CC1=C(C=C(C=C1)NC(=O)C2=CC(=CC=C2)C(C)(C)C#N)NC3=CC4=C(C=C3)N=CN(C4=O)C
Procedure, shortened: as §1

[11] = compound: CC1=C(C=C(C=C1)NC(=O)C2=CC(=CC=C2)N(C)C)NC(=O)C3=CC=C(C=C3)O
Procedure, shortened: as §1

[12] = compound: CC1=CC=C(C=C1)SC2=C3C=C(SC3=CN=C2)C(=O)N
Procedure, shortened: as §1

[13] = compound: CC1=NC(=CC=C1)C2=C(N=C(N2)C(C)(C)C)C3=CC4=NC=CN=C4C=C3
Procedure, shortened: as §1

[14] = compound: CCCCN(Cc1ccc(C(=O)NO)cc1)C(=O)Nc1ccccc1 [Nexturastat A]
Procedure, shortened: as §1

[15] = compound: CCCS(=O)(=O)Nc1ccc(F)c(C(=O)c2c[nH]c3ncc(-c4ccc(Cl)cc4)cc23)c1F [vemurafenib]
Procedure, shortened: as §1

[16] = compound: CCCS(=O)(=O)Nc1ccc(F)c(C(=O)c2c[nH]c3ncc(Cl)cc23)c1F
Procedure, shortened: as §1

[17] = compound: CCCc1cc(C)[nH]c(=O)c1CNC(=O)c1cc(-c2ccnc(N3CCN(C)CC3)c2)cc2c1cnn2C(C)C
Procedure, shortened: as §1

[18] = compound: CCN(CC)Cc1ccc2cc(COC(=O)Nc3ccc(C(=O)NO)cc3)ccc2c1 [givinostat]
Procedure, shortened: as §1

[19] = compound: CCN(CCCOc1ccc2c(Nc3cc(CC(=O)Nc4cccc(F)c4)[nH]n3)ncnc2c1)CCOP(=O)(O)O [barasertib]
Procedure, shortened: as §1

[20] = compound: CC1=C(C(CC(=O)N1)C2=CC=C(C=C2)C(F)(F)F)C(=O)NC3=C(C=C4C(=C3)C=NN4)F
Procedure, shortened: as §1

Measured: log2 fold change

ARL6IP4 (UniProt Q66PJ3)
inactive: [1] 0.049 | [2] 0.026 | [3] 0.018 | [4] 0.01 | [5] 0 | [6] 0.075 | [7] 0.021 | [8] -0.03 | [9] 0.049 | [10] -0.048 | [11] 0.016 | [12] -0.005 | [13] 0 | [14] 0.001 | [15] -0.07 | [16] -0.019 | [17] -0.038 | [18] 0.005 | [19] -0.01

ARRB1 isoform 2 (UniProt P49407)
inactive: [1] 0.052 | [2] -0.056 | [3] 0.03 | [4] -0.069 | [6] -0.007 | [7] -0.047 | [8] -0.032 | [9] -0.048 | [11] 0.031 | [12] -0.1 | [13] -0.015 | [15] -0.018 | [16] 0.006 | [17] 0.004 | [18] 0.12 | [19] 0.046

ARL4A (UniProt P40617)
inactive: [2] 0.143 | [3] -0.295 | [17] 0.078 | [19] 0.057

ATF1 (UniProt P18846)
inactive: [2] -0.02 | [3] -0.02 | [5] -0.07 | [6] 0.081 | [9] -0.127 | [10] -0.066 | [12] -0.113 | [14] -0.026 | [15] 0.035 | [16] -0.016 | [17] 0.002 | [18] 0.003 | [19] 0.079

ATP6V0C (UniProt P27449)
inactive: [2] 0.033 | [3] -0.148 | [5] 0.053 | [6] -0.281 | [20] -0.195 | [9] -0.067 | [10] 0.219 | [12] 0.023 | [14] -0.074 | [15] -0.156 | [16] 0.072 | [17] 0.098 | [18] 0.092 | [19] -0.025

ATP2C1 isoform 3 (UniProt P98194)
inactive: [2] -0.051 | [3] -0.046 | [6] -0.026 | [12] -0.009 | [16] 0.02 | [17] 0.095 | [18] -0.036 | [19] 0.098

ARL6 isoform 2 (UniProt Q9H0F7)
inactive: [4] -0.096 | [7] -0.041 | [11] -0.007 | [15] -0.029

ATP6AP1 (UniProt Q15904)
inactive: [1] -0.02 | [2] 0 | [3] -0.035 | [4] 0.01 | [5] 0.035 | [6] -0.091 | [7] 0.02 | [8] 0.101 | [9] -0.024 | [10] 0.009 | [11] -0.025 | [12] 0.004 | [13] -0.027 | [14] 0.114 | [15] -0.003 | [16] -0.018 | [17] -0.009 | [18] 0.038 | [19] 0.016

ATG2A (UniProt Q2TAZ0)
inactive: [1] 0.132 | [5] -0.247 | [8] 0.019 | [13] 0.025 | [14] 0.256

ATG12 (UniProt O94817)
inactive: [1] 0.056 | [2] 0.015 | [3] -0.008 | [5] 0.002 | [6] -0.067 | [8] -0.043 | [20] 0.027 | [9] 0.058 | [10] 0.008 | [12] 0.017 | [13] 0.039 | [14] -0.099 | [15] -0.046 | [16] 0.03 | [17] 0.059 | [18] -0.006 | [19] -0.021

ATP5F1B (UniProt F8W0P7)
inactive: [1] -0.039 | [2] 0.116 | [3] -0.077 | [4] 0.014 | [5] 0.064 | [7] 0.075 | [8] -0.049 | [20] -0.399 | [9] 0.047 | [10] 0.147 | [11] -0.051 | [12] 0.027 | [13] -0.012 | [14] -0.118 | [16] -0.151 | [17] 0.036 | [19] -0.23

ATG14 (UniProt Q6ZNE5)
inactive: [2] 0.061 | [3] -0.16 | [6] -0.066 | [10] -0.075 | [12] 0.14 | [16] 0.111 | [18] 0.068 | [19] -0.041

ATP6V0A2 (UniProt Q9Y487)
inactive: [1] -0.006 | [2] -0.026 | [3] -0.017 | [4] 0.057 | [5] -0.01 | [7] 0.049 | [8] 0.054 | [9] 0.003 | [10] 0.021 | [11] 0.016 | [12] 0.006 | [13] -0.013 | [14] 0.024 | [15] 0.026 | [16] 0.014 | [17] 0.014 | [18] 0.02 | [19] 0.008
active: [6] -0.297

ATG4C (UniProt Q96DT6)
inactive: [1] 0.035 | [2] 0.096 | [4] 0.115 | [5] -0.019 | [6] -0.001 | [7] -0.003 | [8] 0.035 | [20] -0.02 | [9] 0.377 | [10] -0.067 | [11] 0.087 | [12] -0.011 | [13] -0.025 | [14] 0.043 | [15] 0.015 | [16] 0.043 | [17] -0.195 | [18] 0.07 | [19] 0.021

Two records picked at random from those above, as already listed:
ATP5F1B (UniProt F8W0P7)
inactive: [1] -0.039 | [2] 0.116 | [3] -0.077 | [4] 0.014 | [5] 0.064 | [7] 0.075 | [8] -0.049 | [20] -0.399 | [9] 0.047 | [10] 0.147 | [11] -0.051 | [12] 0.027 | [13] -0.012 | [14] -0.118 | [16] -0.151 | [17] 0.036 | [19] -0.23

ATG14 (UniProt Q6ZNE5)
inactive: [2] 0.061 | [3] -0.16 | [6] -0.066 | [10] -0.075 | [12] 0.14 | [16] 0.111 | [18] 0.068 | [19] -0.041

(next part)

ARPIN isoform 2 (UniProt Q7Z6K5)
inactive: [1] -0.043 | [2] -0.007 | [3] -0.159 | [4] -0.073 | [6] -0.163 | [7] 0.246 | [8] 0.086 | [20] 0.092 | [9] -0.032 | [11] -0.054 | [12] 0.009 | [13] 0.141 | [15] -0.04 | [16] 0.06 | [17] 0 | [18] -0.008 | [19] 0.035

ARSK (UniProt Q6UWY0)
inactive: [1] 0.027 | [2] -0.066 | [5] -0.102 | [6] -0.119 | [8] -0.04 | [20] -0.105 | [13] -0.023 | [14] -0.217 | [15] -0.028 | [17] -0.039 | [18] -0.051 | [19] -0.182

ASNSD1 (UniProt Q9NWL6)
inactive: [1] 0.103 | [2] -0.057 | [5] -0.025 | [8] -0.065 | [20] -0.316 | [10] -0.01 | [13] -0.068 | [14] -0.202 | [19] 0.152

Source: the supplement of paper PMC10849652
